In article PMC5996148:
The list shows a part of the results.

Key:
Assay in all cases: protein microarray (ProtoArray v5.0), streptavidin-Alexa Fluor 647
Conditions in all cases: 3'-biotin; 20 mM Tris (pH 7.5), 5 mM MgCl2, 100 mM KCl, 0.1% Tween-20, A/T-rich and random oligonucleotide blockers; temperature not stated; high values mean tight binding
[1] = tested on: Regulator of G-protein signaling 8 (human)
[2] = tested on: Retinoid-binding protein 7 (human)
[3] = tested on: Retinol-binding protein 1 (human)
[4] = tested on: Rho GTPase-activating protein 12 (human)
[5] = tested on: Rho GTPase-activating protein 15 (human)
[6] = tested on: Rho GTPase-activating protein 29 (human)
[7] = tested on: Ropporin-1-like protein (human)
Ropporin-1B (human) = tested on: Ropporin-1B (human)
S100A14 (human) = tested on: S100A14 (human)
S100A2 (human) = tested on: S100A2 (human)
S100A8 (human) = tested on: S100A8 (human)
SAA1 (human) = tested on: SAA1 (human)
SAA4 (human) = tested on: SAA4 (human)
SAE1 (human) = tested on: SAE1 (human)
SAMD3 (human) = tested on: SAMD3 (human)
SAMD4A (human) = tested on: SAMD4A (human)
SAPS2 (human) = tested on: SAPS2 (human)
SAR1A (human) = tested on: SAR1A (human)
SAR1B (human) = tested on: SAR1B (human)
SCAMP2 (human) = tested on: SCAMP2 (human)

Sequence “GGTGACAGGGGTATGGGGAGGGG [G4-2 biotinylated (Ct1)]” has a binding signal [1] of 4.59 z-score, a binding signal [2] of -0.388 z-score and a binding signal [3] of -0.387 z-score. For the same sequence, the binding signal [4] was 4.46 z-score, the binding signal [5] was 3.87 z-score and the binding signal [6] was -0.367 z-score. It also gave a binding signal [7] of -0.38 z-score, a binding signal (Ropporin-1B (human)) of -0.405 z-score and a binding signal (S100A14 (human)) of -0.398 z-score. For the same sequence, the binding signal (S100A2 (human)) was -0.378 z-score, the binding signal (S100A8 (human)) was -0.403 z-score and the binding signal (SAA1 (human)) was -0.382 z-score. For the same sequence, the binding signal (SAA4 (human)) was -0.376 z-score, the binding signal (SAE1 (human)) was -0.396 z-score and the binding signal (SAMD3 (human)) was -0.378 z-score. For the same sequence, the binding signal (SAMD4A (human)) was -0.385 z-score, the binding signal (SAPS2 (human)) was -0.397 z-score and the binding signal (SAR1A (human)) was -0.394 z-score. It also gave a binding signal (SAR1B (human)) of -0.4 z-score and a binding signal (SCAMP2 (human)) of -0.384 z-score.
